Experimental data as given in the supplement of paper PMC10849652.
Some of the results follow.

Sequences of proteins named here, by UniProt entry; tags and fusion partners are left off. A change or cut given only in a name is not applied to a line headed by its entry.
UniProt Q08J23, whole entry, looked up: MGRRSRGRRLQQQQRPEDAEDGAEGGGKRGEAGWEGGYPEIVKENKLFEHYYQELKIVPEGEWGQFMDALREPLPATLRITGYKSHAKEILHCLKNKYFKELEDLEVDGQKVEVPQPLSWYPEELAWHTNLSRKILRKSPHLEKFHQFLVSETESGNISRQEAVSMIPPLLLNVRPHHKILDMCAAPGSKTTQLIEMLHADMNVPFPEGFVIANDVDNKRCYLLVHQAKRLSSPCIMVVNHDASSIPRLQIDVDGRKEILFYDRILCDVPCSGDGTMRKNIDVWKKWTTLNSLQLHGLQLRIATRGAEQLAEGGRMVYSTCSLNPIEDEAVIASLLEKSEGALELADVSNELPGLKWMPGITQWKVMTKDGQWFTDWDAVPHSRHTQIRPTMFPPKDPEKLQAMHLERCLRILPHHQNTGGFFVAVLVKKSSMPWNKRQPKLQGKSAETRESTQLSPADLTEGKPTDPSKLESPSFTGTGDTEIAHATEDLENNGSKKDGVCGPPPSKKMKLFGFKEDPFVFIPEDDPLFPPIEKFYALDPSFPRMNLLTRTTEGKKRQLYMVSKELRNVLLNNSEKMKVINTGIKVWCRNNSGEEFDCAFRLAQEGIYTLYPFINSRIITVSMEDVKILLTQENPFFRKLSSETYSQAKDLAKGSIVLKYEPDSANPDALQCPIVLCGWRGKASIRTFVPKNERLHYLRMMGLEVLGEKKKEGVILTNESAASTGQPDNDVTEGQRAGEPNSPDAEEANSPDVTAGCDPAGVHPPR
UniProt Q9HAN9, whole entry, looked up: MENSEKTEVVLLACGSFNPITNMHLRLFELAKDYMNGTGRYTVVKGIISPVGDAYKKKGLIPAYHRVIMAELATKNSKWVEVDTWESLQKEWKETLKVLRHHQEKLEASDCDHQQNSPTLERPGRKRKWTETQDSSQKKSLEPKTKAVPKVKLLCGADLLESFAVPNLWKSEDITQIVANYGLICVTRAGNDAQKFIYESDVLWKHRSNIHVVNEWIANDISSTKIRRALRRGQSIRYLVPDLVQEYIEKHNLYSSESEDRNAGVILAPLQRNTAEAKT
UniProt Q8WV22: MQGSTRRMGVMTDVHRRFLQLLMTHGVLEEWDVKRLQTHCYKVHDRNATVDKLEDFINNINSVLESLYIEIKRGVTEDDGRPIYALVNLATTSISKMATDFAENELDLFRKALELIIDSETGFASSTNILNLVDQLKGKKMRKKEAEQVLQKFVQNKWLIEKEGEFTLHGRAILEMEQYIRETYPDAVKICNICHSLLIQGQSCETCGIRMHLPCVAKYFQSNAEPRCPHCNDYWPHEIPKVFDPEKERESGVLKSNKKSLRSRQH
UniProt Q9H8H0: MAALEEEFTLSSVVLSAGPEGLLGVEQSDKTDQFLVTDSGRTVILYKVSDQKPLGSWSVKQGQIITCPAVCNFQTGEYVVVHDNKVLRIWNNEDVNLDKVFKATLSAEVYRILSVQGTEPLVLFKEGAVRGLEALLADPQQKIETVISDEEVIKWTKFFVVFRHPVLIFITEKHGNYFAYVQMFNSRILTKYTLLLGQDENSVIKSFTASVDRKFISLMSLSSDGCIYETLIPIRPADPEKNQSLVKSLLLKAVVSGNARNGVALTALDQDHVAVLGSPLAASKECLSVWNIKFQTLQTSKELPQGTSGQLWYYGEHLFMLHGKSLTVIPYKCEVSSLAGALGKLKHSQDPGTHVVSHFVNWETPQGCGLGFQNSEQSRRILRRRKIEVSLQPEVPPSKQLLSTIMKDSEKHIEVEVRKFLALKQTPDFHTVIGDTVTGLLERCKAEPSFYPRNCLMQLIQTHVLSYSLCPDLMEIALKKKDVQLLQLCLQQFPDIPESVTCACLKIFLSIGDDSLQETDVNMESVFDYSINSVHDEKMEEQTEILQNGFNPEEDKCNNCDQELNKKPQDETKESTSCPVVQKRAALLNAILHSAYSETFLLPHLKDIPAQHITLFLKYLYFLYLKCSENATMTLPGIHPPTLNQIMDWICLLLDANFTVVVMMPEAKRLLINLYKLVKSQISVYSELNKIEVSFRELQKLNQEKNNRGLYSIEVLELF
UniProt Q9BV86: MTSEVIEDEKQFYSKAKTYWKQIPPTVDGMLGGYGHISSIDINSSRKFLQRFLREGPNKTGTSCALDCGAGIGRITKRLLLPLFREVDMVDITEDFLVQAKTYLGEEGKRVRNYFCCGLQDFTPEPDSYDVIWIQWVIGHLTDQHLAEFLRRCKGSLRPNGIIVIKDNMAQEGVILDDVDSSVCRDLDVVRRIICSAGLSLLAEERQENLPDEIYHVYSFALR
UniProt Q9ULX3: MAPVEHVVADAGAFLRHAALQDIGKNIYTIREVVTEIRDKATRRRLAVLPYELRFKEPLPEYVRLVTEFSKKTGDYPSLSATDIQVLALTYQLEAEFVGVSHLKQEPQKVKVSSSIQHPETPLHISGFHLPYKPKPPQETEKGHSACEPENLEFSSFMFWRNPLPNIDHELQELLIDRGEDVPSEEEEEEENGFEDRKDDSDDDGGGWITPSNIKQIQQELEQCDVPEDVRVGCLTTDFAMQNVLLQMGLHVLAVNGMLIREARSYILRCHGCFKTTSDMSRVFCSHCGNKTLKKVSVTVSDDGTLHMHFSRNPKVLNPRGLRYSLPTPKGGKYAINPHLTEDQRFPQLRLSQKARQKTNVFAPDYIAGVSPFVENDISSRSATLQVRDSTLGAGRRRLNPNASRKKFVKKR
UniProt Q9Y266: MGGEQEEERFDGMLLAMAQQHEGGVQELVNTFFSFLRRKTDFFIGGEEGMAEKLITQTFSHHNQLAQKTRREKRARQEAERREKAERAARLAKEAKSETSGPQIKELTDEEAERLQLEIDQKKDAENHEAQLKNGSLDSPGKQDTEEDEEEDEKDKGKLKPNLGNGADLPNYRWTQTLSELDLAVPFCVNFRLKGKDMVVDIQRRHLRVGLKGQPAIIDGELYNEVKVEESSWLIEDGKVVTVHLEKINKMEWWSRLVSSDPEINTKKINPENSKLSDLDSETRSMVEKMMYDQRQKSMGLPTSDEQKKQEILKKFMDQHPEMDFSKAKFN
UniProt Q9H0G5: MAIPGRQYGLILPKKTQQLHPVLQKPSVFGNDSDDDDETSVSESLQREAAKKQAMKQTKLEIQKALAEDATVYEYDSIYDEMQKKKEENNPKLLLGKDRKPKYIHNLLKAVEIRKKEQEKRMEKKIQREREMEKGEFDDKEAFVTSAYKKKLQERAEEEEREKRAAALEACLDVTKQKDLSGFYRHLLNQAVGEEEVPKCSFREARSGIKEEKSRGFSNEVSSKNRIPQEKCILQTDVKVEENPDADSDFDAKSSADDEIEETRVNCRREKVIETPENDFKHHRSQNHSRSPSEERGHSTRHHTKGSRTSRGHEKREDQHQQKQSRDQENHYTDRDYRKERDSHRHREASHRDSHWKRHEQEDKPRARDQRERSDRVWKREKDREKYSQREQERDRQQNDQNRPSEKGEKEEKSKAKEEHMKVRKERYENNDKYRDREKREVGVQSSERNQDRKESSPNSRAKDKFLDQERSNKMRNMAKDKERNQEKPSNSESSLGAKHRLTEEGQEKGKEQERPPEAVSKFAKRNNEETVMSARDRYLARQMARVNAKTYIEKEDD
UniProt P57740: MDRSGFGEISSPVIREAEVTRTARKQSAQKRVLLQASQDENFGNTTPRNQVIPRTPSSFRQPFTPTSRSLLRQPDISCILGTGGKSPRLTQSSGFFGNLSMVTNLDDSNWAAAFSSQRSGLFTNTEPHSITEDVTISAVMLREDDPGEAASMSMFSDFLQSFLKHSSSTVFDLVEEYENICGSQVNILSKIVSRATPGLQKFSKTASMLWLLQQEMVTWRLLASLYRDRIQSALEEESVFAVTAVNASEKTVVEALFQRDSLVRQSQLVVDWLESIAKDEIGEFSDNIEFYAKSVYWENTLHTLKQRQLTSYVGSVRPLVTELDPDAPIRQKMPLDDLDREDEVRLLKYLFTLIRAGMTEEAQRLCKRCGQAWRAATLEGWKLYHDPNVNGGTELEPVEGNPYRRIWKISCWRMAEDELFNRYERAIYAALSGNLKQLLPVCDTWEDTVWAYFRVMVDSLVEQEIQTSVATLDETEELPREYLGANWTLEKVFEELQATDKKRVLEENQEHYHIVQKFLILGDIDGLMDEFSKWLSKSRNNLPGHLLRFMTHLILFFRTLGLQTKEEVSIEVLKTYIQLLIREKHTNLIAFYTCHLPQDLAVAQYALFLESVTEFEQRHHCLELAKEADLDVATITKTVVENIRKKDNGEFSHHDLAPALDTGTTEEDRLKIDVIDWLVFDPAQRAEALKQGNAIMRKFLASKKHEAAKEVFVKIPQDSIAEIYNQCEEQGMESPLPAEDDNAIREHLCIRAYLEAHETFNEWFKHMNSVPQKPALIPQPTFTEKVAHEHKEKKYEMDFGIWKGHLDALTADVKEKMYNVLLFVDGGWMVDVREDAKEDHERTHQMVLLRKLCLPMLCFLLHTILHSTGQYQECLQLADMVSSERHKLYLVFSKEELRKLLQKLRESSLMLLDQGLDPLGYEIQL
UniProt Q14980: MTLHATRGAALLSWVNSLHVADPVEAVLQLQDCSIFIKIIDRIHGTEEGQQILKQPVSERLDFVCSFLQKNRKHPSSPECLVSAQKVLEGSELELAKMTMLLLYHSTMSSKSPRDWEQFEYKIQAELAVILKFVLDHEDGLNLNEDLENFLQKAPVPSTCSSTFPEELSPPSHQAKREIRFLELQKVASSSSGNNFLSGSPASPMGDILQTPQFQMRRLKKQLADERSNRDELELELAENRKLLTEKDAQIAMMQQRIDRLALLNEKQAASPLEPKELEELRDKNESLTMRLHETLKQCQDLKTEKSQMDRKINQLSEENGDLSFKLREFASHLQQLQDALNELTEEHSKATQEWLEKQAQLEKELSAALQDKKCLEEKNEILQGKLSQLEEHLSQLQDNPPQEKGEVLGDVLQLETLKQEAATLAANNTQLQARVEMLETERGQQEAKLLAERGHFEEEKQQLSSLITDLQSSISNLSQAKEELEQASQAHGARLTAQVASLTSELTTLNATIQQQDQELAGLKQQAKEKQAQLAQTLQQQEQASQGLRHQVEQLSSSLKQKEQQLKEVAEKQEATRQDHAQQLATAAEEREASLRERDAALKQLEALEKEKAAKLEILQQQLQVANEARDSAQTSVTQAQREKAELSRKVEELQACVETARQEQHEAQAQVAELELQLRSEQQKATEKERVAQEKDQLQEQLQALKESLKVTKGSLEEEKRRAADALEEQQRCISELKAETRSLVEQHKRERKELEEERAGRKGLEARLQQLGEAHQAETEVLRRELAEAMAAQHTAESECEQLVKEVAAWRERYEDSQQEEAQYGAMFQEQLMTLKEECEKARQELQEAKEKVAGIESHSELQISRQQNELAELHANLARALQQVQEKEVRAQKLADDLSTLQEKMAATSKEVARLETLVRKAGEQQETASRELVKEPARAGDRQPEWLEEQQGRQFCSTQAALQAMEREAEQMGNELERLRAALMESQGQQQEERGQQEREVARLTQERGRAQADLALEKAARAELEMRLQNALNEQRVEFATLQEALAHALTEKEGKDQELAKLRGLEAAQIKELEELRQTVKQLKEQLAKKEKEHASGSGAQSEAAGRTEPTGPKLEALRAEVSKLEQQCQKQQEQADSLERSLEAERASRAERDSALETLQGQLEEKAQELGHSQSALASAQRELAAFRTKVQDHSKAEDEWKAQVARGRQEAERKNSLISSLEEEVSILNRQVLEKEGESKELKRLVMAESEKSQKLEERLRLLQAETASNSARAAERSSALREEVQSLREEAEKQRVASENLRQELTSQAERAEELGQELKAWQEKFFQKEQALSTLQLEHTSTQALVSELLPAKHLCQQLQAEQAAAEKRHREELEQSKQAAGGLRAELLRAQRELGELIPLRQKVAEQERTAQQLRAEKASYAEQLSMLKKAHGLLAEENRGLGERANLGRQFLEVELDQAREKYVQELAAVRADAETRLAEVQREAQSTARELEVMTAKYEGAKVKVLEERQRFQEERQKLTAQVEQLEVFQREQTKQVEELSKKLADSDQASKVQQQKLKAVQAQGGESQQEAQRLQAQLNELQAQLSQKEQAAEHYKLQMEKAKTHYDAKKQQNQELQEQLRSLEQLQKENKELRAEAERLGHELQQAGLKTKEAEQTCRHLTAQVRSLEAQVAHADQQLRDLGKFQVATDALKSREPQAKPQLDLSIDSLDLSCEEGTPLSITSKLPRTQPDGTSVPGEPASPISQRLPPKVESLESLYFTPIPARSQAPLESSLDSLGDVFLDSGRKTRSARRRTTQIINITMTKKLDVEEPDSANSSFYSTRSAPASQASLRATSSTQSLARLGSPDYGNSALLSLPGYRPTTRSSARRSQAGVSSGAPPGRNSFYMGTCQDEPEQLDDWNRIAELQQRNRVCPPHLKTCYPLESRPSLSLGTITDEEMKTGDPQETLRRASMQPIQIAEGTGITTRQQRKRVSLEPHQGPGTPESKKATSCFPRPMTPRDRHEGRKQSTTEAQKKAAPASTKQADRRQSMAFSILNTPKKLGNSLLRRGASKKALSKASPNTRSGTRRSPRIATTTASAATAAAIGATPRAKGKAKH

Assays:
Experiment in all cases: log2 fold change, soluble protein after heating vs DMSO (PISA); higher = thermal stabilisation; K562 lysate, 10 uM; active = over 0.2 and 3.5 SD of the protein, either way, in both replicates (recomputed)
erlotinib = compound: C#Cc1cccc(Nc2ncnc3cc(OCCOC)c(OCCOC)cc23)c1 [erlotinib]
Procedure, shortened: (§1)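 Quantification was by TMTpro 16plex LC-MS/MS with equalised channel sums, applied to the supernatant after 21,000xg for 90 min. Samples were crude K562 extract at 1 mg/mL protein in PBS pH 7.4 with 1 mM MgCl2, treated with 10 μM compound for 30 min, heated for 3 min across 48°C-58°C, pooled and brought to 0.5% NP-40 at 4°C. Values are log-two fold changes in thermal stability relative to solvent controls, from duplicates.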

[1] = compound: C/C(=N\NC(=O)C1=CC(=CC=C1)S(=O)(=O)N2CCOCC2)/C3=C(C=CC(=C3)Cl)O
Procedure, shortened: as §1

[2] = compound: C1=CC(=CC=C1C2=NC3=C(N2)C=C(C=C3)C(=O)N)OC4=CC=C(C=C4)Cl
Procedure, shortened: as §1

[3] = compound: C1=CC2=C(C=CC(=C2)/C=C\3/C(=O)NC(=NCC4=CC=CS4)S3)N=C1
Procedure, shortened: as §1

[4] = compound: C1=CC2=NC=CN=C2C=C1/C=C/3\C(=O)NC(=O)S3
Procedure, shortened: as §1

[5] = compound: C1=CC=C(C=C1)C2=NC(=C(N2)C3=CC=NC=C3)C4=CC(=C(C=C4)Cl)O
Procedure, shortened: as §1

[6] = compound: C1=CC=C2C(=C1)C3=NNC4=CC=CC(=C43)C2=O
Procedure, shortened: as §1

[7] = compound: C1CCN(C1)C(=O)NC2=CC=CC(=C2)NC3=NC=C(C(=N3)NCCC4=CN=CN4)Br
Procedure, shortened: as §1

[8] = compound: C1CN(CCC1(CC2=CC=C(C=C2)Cl)N)C3=NC=NC4=C3C=CN4
Procedure, shortened: as §1

IRAK-1-4 Inhibitor I = compound: C1COCCN1CCN2C3=CC=CC=C3N=C2NC(=O)C4=CC(=CC=C4)[N+](=O)[O-] [IRAK-1-4 Inhibitor I]
Procedure, shortened: as §1

ibrutinib = compound: C=CC(=O)N1CCC[C@@H](n2nc(-c3ccc(Oc4ccccc4)cc3)c3c(N)ncnc32)C1 [ibrutinib]
Procedure, shortened: as §1

[9] = compound: CC(=O)c1cnc2ccc(-c3cc(Cl)c(O)c(Cl)c3)nc2c1N[C@H]1CC[C@H](CN(C)C)CC1
Procedure, shortened: as §1

ralimetinib = compound: CC(C)(C)Cn1c(N)nc2ccc(-c3[nH]c(C(C)(C)C)nc3-c3ccc(F)cc3)nc21 [ralimetinib]
Procedure, shortened: as §1

[10] = compound: CC(C)(O)CC(=O)NCCn1ccc2ncnc(Nc3ccc(Oc4cccc(C(F)(F)F)c4)c(Cl)c3)c21
Procedure, shortened: as §1

[11] = compound: CC(C)C1=C2N=C(C=C(N2N=C1)NCC3=CC=CC=C3)NCCCCCCN
Procedure, shortened: as §1

[12] = compound: CC1=C(C(CC(=O)N1)C2=CC=C(C=C2)C(F)(F)F)C(=O)NC3=C(C=C4C(=C3)C=NN4)F
Procedure, shortened: as §1

[13] = compound: CC1=C(C2=C(C=C1)C(=O)C3=CC=CC=C3N2CCCN)C
Procedure, shortened: as §1

[14] = compound: CC1=C(C=C(C=C1)NC(=O)C2=CC(=CC=C2)C(C)(C)C#N)NC3=CC4=C(C=C3)N=CN(C4=O)C
Procedure, shortened: as §1

[15] = compound: CC1=C(C=C(C=C1)NC(=O)C2=CC(=CC=C2)N(C)C)NC(=O)C3=CC=C(C=C3)O
Procedure, shortened: as §1

[16] = compound: CC1=CC=C(C=C1)SC2=C3C=C(SC3=CN=C2)C(=O)N
Procedure, shortened: as §1

Measured: log2 fold change

NSUN2 (UniProt Q08J23)
inactive: erlotinib 0.004 | [1] 0.04 | [2] -0.018 | [3] 0.006 | [4] 0.004 | [5] -0.006 | [6] -0.016 | [7] 0.033 | [8] -0.018 | IRAK-1-4 Inhibitor I -0.002 | ibrutinib 0.014 | [9] 0.011 | ralimetinib 0.023 | [10] 0.015 | [11] 0.006 | [12] 0.008 | [13] 0.006 | [14] -0.035 | [15] 0.033 | [16] 0.017

NUDCD1 (UniProt Q96RS6)
inactive: erlotinib 0.023 | [1] -0.028 | [2] 0.004 | [3] -0.002 | [4] 0.017 | [5] 0.017 | [6] -0.021 | [7] -0.006 | [8] 0.025 | IRAK-1-4 Inhibitor I 0.004 | ibrutinib -0.03 | [9] 0.015 | ralimetinib 0.027 | [10] 0 | [11] -0.028 | [12] 0.008 | [13] -0.003 | [14] 0.025 | [15] -0.019 | [16] -0.007

NMNAT1 (UniProt Q9HAN9)
inactive: erlotinib -0.028 | [1] 0.037 | [2] 0.042 | [3] 0.026 | [4] -0.008 | [5] 0.028 | [6] -0.012 | [7] 0.041 | [8] -0.09 | IRAK-1-4 Inhibitor I -0.017 | ibrutinib -0.024 | [9] -0.025 | ralimetinib 0.041 | [10] -0.031 | [11] -0.098 | [12] -0.012 | [13] -0.029 | [14] 0.017 | [15] 0.023 | [16] -0.012

NSMCE1 (UniProt Q8WV22)
inactive: erlotinib -0.02 | [1] 0.029 | [2] 0.021 | [3] -0.048 | [4] -0.005 | [5] 0.073 | [6] -0.008 | [7] -0.006 | [8] -0.065 | IRAK-1-4 Inhibitor I 0.006 | ibrutinib 0.098 | [9] 0.022 | ralimetinib -0.031 | [10] 0.003 | [11] -0.001 | [12] -0.011 | [13] 0.016 | [14] 0.027 | [15] 0.018 | [16] -0.02

NUB1 (UniProt Q9Y5A7)
inactive: erlotinib 0.049 | [1] 0.055 | [2] -0.003 | [3] -0.015 | [4] 0.002 | [5] 0.054 | [6] 0.023 | [7] -0.022 | [8] -0.023 | IRAK-1-4 Inhibitor I -0.02 | ibrutinib -0.001 | [9] 0.022 | ralimetinib -0.003 | [10] 0.018 | [11] -0.027 | [12] 0.014 | [13] -0.009 | [14] -0.028 | [15] 0.008 | [16] 0.02

NUDT9 (UniProt Q9BW91)
inactive: erlotinib 0.01 | [1] -0.059 | [2] 0.055 | [3] -0.057 | [4] -0.015 | [5] -0.022 | [6] 0.011 | [7] 0.007 | [8] 0.012 | IRAK-1-4 Inhibitor I 0.012 | ibrutinib -0.012 | [9] 0.005 | ralimetinib 0.022 | [10] -0.055 | [11] -0.002 | [12] -0.006 | [13] -0.002 | [14] 0.007 | [15] 0.008 | [16] -0.023

NOL11 (UniProt Q9H8H0)
inactive: erlotinib 0.045 | [1] -0.05 | [2] -0.007 | [3] 0.025 | [4] -0.026 | [5] -0.014 | [6] -0.016 | [7] -0.026 | [8] 0.013 | IRAK-1-4 Inhibitor I 0.021 | ibrutinib -0.025 | [9] 0.251 | ralimetinib 0.019 | [10] -0.027 | [11] -0.047 | [12] 0.039 | [13] -0.082 | [14] 0.054 | [15] -0.004 | [16] -0.001

Random excerpt: two records from the list, in no set order.
NOL11 (UniProt Q9H8H0)
inactive: erlotinib 0.045 | [1] -0.05 | [2] -0.007 | [3] 0.025 | [4] -0.026 | [5] -0.014 | [6] -0.016 | [7] -0.026 | [8] 0.013 | IRAK-1-4 Inhibitor I 0.021 | ibrutinib -0.025 | [9] 0.251 | ralimetinib 0.019 | [10] -0.027 | [11] -0.047 | [12] 0.039 | [13] -0.082 | [14] 0.054 | [15] -0.004 | [16] -0.001

NUB1 (UniProt Q9Y5A7)
inactive: erlotinib 0.049 | [1] 0.055 | [2] -0.003 | [3] -0.015 | [4] 0.002 | [5] 0.054 | [6] 0.023 | [7] -0.022 | [8] -0.023 | IRAK-1-4 Inhibitor I -0.02 | ibrutinib -0.001 | [9] 0.022 | ralimetinib -0.003 | [10] 0.018 | [11] -0.027 | [12] 0.014 | [13] -0.009 | [14] -0.028 | [15] 0.008 | [16] 0.02

Following part

NTMT1 (UniProt Q9BV86)
inactive: erlotinib 0.002 | [1] 0.031 | [2] 0.02 | [3] 0.055 | [4] -0.001 | [5] -0.002 | [6] 0.014 | [7] 0.021 | [8] 0.042 | IRAK-1-4 Inhibitor I -0.033 | ibrutinib -0.025 | [9] 0.022 | ralimetinib -0.025 | [10] -0.018 | [11] 0 | [12] -0.005 | [13] -0.01 | [14] -0.008 | [15] 0.047 | [16] 0.01

NOB1 (UniProt Q9ULX3)
inactive: erlotinib 0.011 | [1] -0.028 | [2] 0.012 | [3] -0.016 | [4] -0.02 | [5] 0.023 | [6] -0.016 | [7] -0.016 | [8] -0.027 | IRAK-1-4 Inhibitor I 0.011 | ibrutinib -0.005 | [9] 0.018 | ralimetinib -0.028 | [10] 0.014 | [11] 0.013 | [12] -0.001 | [13] -0.046 | [14] 0.03 | [15] 0.019 | [16] 0.004

NUDC (UniProt Q9Y266)
inactive: erlotinib -0.03 | [1] 0.052 | [2] 0.003 | [3] -0.027 | [4] -0.012 | [5] 0.016 | [6] 0.005 | [7] -0.007 | [8] 0.008 | IRAK-1-4 Inhibitor I 0.004 | ibrutinib 0 | [9] 0.001 | ralimetinib -0.019 | [10] 0.013 | [11] -0.012 | [12] -0.026 | [13] 0.012 | [14] -0.027 | [15] 0.005 | [16] 0.008

NSRP1 (UniProt Q9H0G5)
inactive: erlotinib -0.021 | [1] -0.04 | [2] -0.006 | [3] 0.02 | [4] -0.021 | [5] 0.028 | [6] 0.027 | [7] -0.01 | [8] -0.003 | IRAK-1-4 Inhibitor I 0.012 | ibrutinib 0.075 | [9] -0.005 | ralimetinib -0.025 | [10] -0.014 | [11] 0.002 | [12] 0.005 | [13] -0.021 | [14] 0.011 | [15] 0.007 | [16] -0.001

NNMT (UniProt P40261)
inactive: erlotinib -0.015 | [1] 0.003 | [2] 0.045 | [3] -0.001 | [4] -0.003 | [5] 0.032 | [6] -0.019 | [7] -0.002 | [8] -0.006 | IRAK-1-4 Inhibitor I -0.024 | ibrutinib -0.026 | [9] -0.037 | ralimetinib 0.011 | [10] -0.019 | [11] -0.05 | [12] -0.053 | [13] 0.026 | [14] 0.06 | [15] 0.016 | [16] -0.034

NUDT15 (UniProt Q9NV35)
inactive: erlotinib 0.007 | [1] 0.028 | [2] -0.033 | [3] 0.031 | [4] -0.006 | [5] 0.016 | [6] -0.001 | [7] -0.005 | [8] 0.01 | IRAK-1-4 Inhibitor I -0.015 | ibrutinib 0.006 | [9] -0.024 | ralimetinib -0.019 | [10] 0 | [11] -0.015 | [12] 0.022 | [13] 0.047 | [14] -0.006 | [15] 0.028 | [16] 0.009

NUP107 (UniProt P57740)
inactive: erlotinib 0.028 | [1] 0.035 | [2] 0.001 | [3] 0.028 | [4] -0.021 | [5] 0.003 | [6] -0.012 | [7] 0.005 | [8] 0.018 | IRAK-1-4 Inhibitor I -0.015 | ibrutinib -0.001 | [9] -0.013 | ralimetinib 0.031 | [10] 0.059 | [11] -0.021 | [12] 0.044 | [13] -0.037 | [14] -0.004 | [15] 0.03 | [16] 0.007

NOMO2 (UniProt Q5JPE7)
inactive: erlotinib 0 | [1] -0.051 | [2] -0.035 | [3] -0.01 | [4] 0.025 | [5] -0.006 | [6] -0.022 | [7] 0.007 | [8] 0.026 | IRAK-1-4 Inhibitor I 0.012 | ibrutinib 0.026 | [9] 0.014 | ralimetinib 0.021 | [10] 0.002 | [11] -0.03 | [12] 0.012 | [13] -0.002 | [14] 0.019 | [15] -0.005 | [16] 0.006

NUMA1 (UniProt Q14980)
inactive: erlotinib -0.019 | [1] 0.028 | [2] -0.007 | [3] -0.029 | [4] -0.019 | [5] 0.013 | [6] 0.009 | [7] -0.01 | [8] -0.012 | IRAK-1-4 Inhibitor I -0.016 | ibrutinib 0.021 | [9] 0.013 | ralimetinib 0.006 | [10] -0.016 | [11] -0.01 | [12] 0.016 | [13] -0.01 | [14] 0.011 | [15] 0.001 | [16] 0.02
